PubChem BioAssay AID493014 (National Center for Advancing Translational Sciences (NCATS), 2011)
The whole screen tested about 340,000 compounds, of which about 170 (0.05%) were called active. Inconclusive means that the source gave no clear call. Such entries were picked first, then a sample of the others. Calls follow the shape of the dose curve; as a rule, active = well fitted inhibition curve with a large enough effect in the signal ratio, with a control signal flat (not every such curve was filed as active); inconclusive = small, poorly fitted or top-dose-only effect, or effect the other way, or a change in a side signal; inactive = flat fitted curve, though single readings scatter; the % refers to the signal ratio. A potency beside an inconclusive call is a rough fit, not a confirmed value.

Test: qHTS Assay to Find Inhibitors of Chronic Active B-Cell Receptor Signaling;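 as to activity change, negative = inhibition: plate controls were basal doxycycline-induced cells for no effect and cells given 10 µM MG132 for full effect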
Conditions: ABC-DLBCL IkBa-CBG/CBR reporter, luminescence ratio (green luciferase fused to IkBa over red control in TMD8 lymphoma cells), 4 h; activity change, negative = inhibition: at 46.1 µM (top of the series)
Outline: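 Doxycycline induced both beetle luciferases in TMD8 lymphoma cells; IKK-driven degradation limits the IkappaBalpha-fused green signal, while red luminescence normalises for cell number and nonspecific effects. Compounds tested up to 46 uM, 4 hrs.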
Potency is read from the fitted curve at half-maximal effect.

Row | SMILES | activity change, negative = inhibition | Potency
1 | CCOc1ccc(NC(=O)c2c(NCc3ccc(C)o3)sc3c2CCCCC3)cc1 | inactive: -6.56% | –
2 | COCCN(Cc1cc2cc3c(cc2nc1Cl)OCO3)C(=O)Nc1ccc(F)cc1 | inconclusive: -1.52% | –
3 | CNC(=O)c1ccc(-c2ccccc2)s1 | – | inconclusive: 25.1 µM [falling, single point]
4 | CCCCSc1nnc(-c2ccc(C)cc2)c2ccccc12 | inconclusive: 4.77% | –
5 | CC(C)NS(=O)(=O)c1ccc(OCC(=O)N2CCN(c3ccccc3)CC2)cc1 | inactive: 5.07% | –
6 | Nc1ncc2c(n1)-c1cc(Cl)ccc1SC2 | inconclusive: 12.1% | –
7 | O=S(=O)(c1ccc(Br)cc1)N1CCCN(Cc2cccc(F)c2)CC1 | inconclusive: -12.5% | –
8 | Cc1ccc(NC(=O)COC(=O)C2CCC2)cc1S(=O)(=O)N1CCOCC1 | inactive: 0.535% | –
9 | Cc1ccc(S(=O)(=O)Nc2ccc(S(=O)(=O)Nc3nccs3)cc2)c([N+](=O)[O-])c1 | inactive: -3.91% | –
10 | O=C1c2oc3ccccc3c(=O)c2C(c2ccc(O)cc2)N1Cc1ccc2c(c1)OCO2 (stereo unspecified) | inactive: 6.12% | –
11 | c1ccc(-c2csc3ncn4cnnc4c23)cc1 | inconclusive: 272% | –
12 | C/C=C/C(=O)NCCc1ccc(OC)c(OC)c1 | inconclusive: 8.21% | –
13 | Clc1ccccc1Cn1nc(-c2ccccc2)nc1-c1ccccc1 | inconclusive: -0.74% | –
14 | O=C(NNc1nc2cc3c(cc2s1)OCCO3)c1ccc(F)cc1 | inactive: -3.72% | –
15 | Cc1ccc(COC(=O)c2cc([N+](=O)[O-])ccc2N2CCOCC2)cc1 | – | inconclusive: 3.98 µM [falling, full curve]
16 | CNC(=O)c1ccccc1Nc1ccc(SC(F)F)cc1 | inconclusive: 3.9% | –
17 | CCC(CC)C(=O)NN(C(=O)c1ccncc1)C1CC(=O)N(c2ccccc2)C1=O (stereo unspecified) | inactive: -6.71% | –
18 | O=C(Nc1ccccc1C(=O)O)c1cccc(NC(=O)c2ccccc2Cl)c1 | inactive: -4.28% | –
19 | Cc1cccc(N2C(=O)CCC2=O)c1 | – | inconclusive: 8.2 µM [rising, partial curve]

Retrieved by compound from the entries so far (4):
Row | SMILES | activity change, negative = inhibition | Potency
6 | Nc1ncc2c(n1)-c1cc(Cl)ccc1SC2 | inconclusive: 12.1% | –
16 | CNC(=O)c1ccccc1Nc1ccc(SC(F)F)cc1 | inconclusive: 3.9% | –
18 | O=C(Nc1ccccc1C(=O)O)c1cccc(NC(=O)c2ccccc2Cl)c1 | inactive: -4.28% | –
7 | O=S(=O)(c1ccc(Br)cc1)N1CCCN(Cc2cccc(F)c2)CC1 | inconclusive: -12.5% | –

Carrying on:

Row | SMILES | activity change, negative = inhibition | Potency
20 | CCn1c(COc2cccc(C)c2)nnc1SCC(=O)Nc1cccc(C(=O)OC)c1 | inconclusive: 1.27% | –
21 | O=C(Cc1cccc2ccccc12)N1CC[C@@]2(O)CCCC[C@H]2C1 | – | inconclusive: 22.4 µM [falling, partial curve]
22 | N#Cc1ccc(C(=O)Nc2nnc(-c3ccco3)o2)cc1 | – | inconclusive: 31.6 µM [falling, partial curve]
23 | O=C(Nc1ccc(Cl)c(S(=O)(=O)N2CCOCC2)c1)[C@@H]1CCCN1C(=O)c1cccs1 | inactive: 2.2% | –
24 | Fc1cccc(Cl)c1-c1nnc2ccc(N3CCOCC3)nn12 | – | inconclusive: 11.6 µM [falling, partial curve, poor fit]
25 | CCOc1ccccc1NC(=O)CSc1nnnn1-c1ccc(C(=O)OC)cc1 | inconclusive: 4.12% | –
26 | FCCCOc1ccc(/C=N/OCc2ccc(Cl)cc2)cc1 | inactive: 18.6% | –
27 | Cc1cccc(C(=O)NC(C(=O)Nc2nc(-c3ccccn3)cs2)C(C)C)c1 (stereo unspecified) | inconclusive: -1.8% | –
28 | CCCOc1ccc([N+](=O)[O-])cc1C1NC(=S)NC(c2ccccc2)=C1C(=O)OCC (stereo unspecified) | inactive: 7.12% | –
29 | CSCC[C@H](NC(=O)OC(C)(C)C)C(=O)N/N=C/c1cccc2cccnc12 | inconclusive: -22.5% | –
30 | Cc1ccc(NC(=O)C(=O)NCCCN2CCOCC2)c(C)c1 | inactive: -1.96% | –
31 | Cc1cccc2sc(N(CCCN(C)C)C(=O)c3nc4ccccc4s3)nc12 | inactive: -6.5% | –
32 | COC(CNC(=O)CCc1c(C)nc2c(-c3ccc(F)cc3)c(C)nn2c1C)OC | – | inconclusive: 25.9 µM [falling, partial curve, poor fit]
33 | COc1ccc(Nc2nccc(-c3ccc(C#N)cc3)n2)cc1 | inconclusive: -18.2% | –
34 | NC(=O)c1ccc(CN2CCc3ccccc3C2)cc1 | inconclusive: -0.276% | –
35 | Cc1c(C#N)c2ccccc2n1C | inconclusive: -0.451% | –
36 | O=C(Cc1ccccc1)N(Cc1cccnc1)c1nc2c(Cl)cccc2s1 | – | inconclusive: 22.4 µM [rising, single point]
37 | O=C(NN=C1CCCC1)c1ccccc1OCCOc1ccccc1 | – | inconclusive: 7.08 µM [falling, full curve]
38 | O=C(CN1CCN(c2ccccn2)CC1)Nc1cccc(F)c1 | inconclusive: 3.04% | –

Row | SMILES | activity change, negative = inhibition | Potency
39 | Cn1cc(/C=C(\NC(=O)c2ccccc2)C(=O)NCCN2CCOCC2)c2ccccc21 | – | inconclusive: 17.8 µM [falling, single point]
40 | CCOC(=O)c1c(C)c(C(=O)NCC2CCCO2)c(C)n1CC (stereo unspecified) | inconclusive: -0.963% | –
41 | Cc1sc2ncnc(SCC(=O)Nc3ncccc3O)c2c1C | inconclusive: -13% | –
42 | Cc1ccc(C(=O)N=c2sccn2C)cc1S(=O)(=O)N1CCOCC1 | – | inconclusive: 10.3 µM [falling, partial curve]
43 | Cc1ccc(CC(=O)CCc2ccccc2)cc1 | inconclusive: 10.7% | –
44 | O=C(Cc1ccc(Cl)c(Cl)c1)NNC(=S)NCC1CCCO1 (stereo unspecified) | inactive: -5.25% | –
45 | CCN(CC)S(=O)(=O)c1cccc(C(=O)OCC(=O)Nc2ccc3c(c2)c2ccccc2n3CC)c1 | inactive: -8.3% | –
46 | CCOC(=O)[C@@H]1[C@H]2COc3ccccc3[C@H]2N2C(=O)N(c3cccc(F)c3)C(=O)[C@]12C | inconclusive: -13.5% | –
47 | Cc1ccc(Sc2cnn(-c3ccccc3)c(=O)c2Cl)cc1 | inconclusive: -5.29% | –
48 | CN(C)c1cc[n+](CC(=O)Nc2ccc(Cl)cc2)cc1 | inactive: -3.02% | –
49 | CN1CCN(C(=S)c2ccc(-c3cc(Cl)ccc3Cl)o2)CC1 | inconclusive: -10.8% | –
50 | CCOC(=O)CSC(=S)NC(=O)c1ccc(OC)cc1 | inconclusive: 6.9% | –
51 | CCOc1ccc(CN2CCN(Cc3cnc(-c4ccccc4)s3)CC2CCO)cc1 (stereo unspecified) | inactive: -5.02% | –
52 | Cc1ccccc1NC(=O)c1cnn(-c2ccccc2)c1C | – | inconclusive: 35.5 µM [rising, single point]
53 | Cc1ccc(NC(=O)Nc2cccc(C)n2)cc1 | inconclusive: 1.33% | –
54 | O=S(=O)(Nc1nc2ccccc2nc1Cl)c1ccc(Cl)cc1 | inconclusive: 17.1% | –
55 | O=C(Nc1cccc(-c2nc3cccnc3s2)c1)c1ccco1 | inactive: -3.73% | –
56 | CC(C)(C)C(=O)NNC(=O)COc1ccc2ccccc2c1Br | inactive: -2.04% | –
